Record: PubChem BioAssay AID1259308 (NCATS, 2017)
Here is one part, drawn at random, of about 59,000 deposited reagents. In the full data, about 1,510 (2.6%) were called active. 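Calls use total luciferase alone and ignore viability, so some active siRNAs may act by altering cell number.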 Unmarked entries are inactive. Reagents against one gene are numbered here. Further read-outs or replicates are left out here.

Test: 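Knock-downs that increase output of a recombinant reporter protein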 (primary screen)
Cell system: human HEK293 embryonic kidney cells stably expressing firefly luciferase (HEK-CMV-Luc2-Hygro)
Reagents: single siRNA against human genes, 0.8 pmol siRNA per well
Duration: 72 h
Measured: 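Luciferase light (ONE-Glo) measured on one replicate plate set and viability (CellTiter-Glo) on the other, scaled to a negative control siRNA, with robust z-scores and luciferase per cell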
Reading the numbers: total luciferase, z-score and total luciferase, % of control: higher = more reporter protein produced; luciferase per cell, z-score: higher = more reporter output per viable cell
Rule for the call: 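Active when the median/MAD z-score for overall luciferase is greater than 3; a gene was taken forward for validation with new siRNAs if at least two of its three siRNAs passed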
Meaning of the calls: active = raised luciferase; inactive = no rise

Target gene | reagent no. | total luciferase, z-score | total luciferase, % of control | luciferase per cell, z-score
FAM89B | 1 | -1.53 | 51.5 | -1.51
FAM89B | 2 | 3.24 (active) | 146 | 1.61
FAM89B | 3 | 0.152 | 84.9 | -0.126
GNRHR | 1 | 3.43 (active) | 150 | 3.13
GNRHR | 2 | -1.18 | 58.4 | -1.58
GNRHR | 3 | 0.286 | 87.6 | -0.0828
OR5H1 | 1 | 0.248 | 86.8 | -0.288
OR5H1 | 2 | -0.201 | 77.9 | 0.0122
OR5H1 | 3 | -0.23 | 77.3 | -0.452
PHF19 | 1 | -0.516 | 71.6 | -0.673
PHF19 | 2 | -0.206 | 77.8 | -0.682
PHF19 | 3 | -0.489 | 72.2 | 0.767
ZNF829 | 1 | -1.46 | 52.9 | -0.705
ZNF829 | 2 | 0.221 | 86.3 | 0.469
ZNF829 | 3 | 1 | 102 | 0.505
NDUFAF8 | 1 | -1.57 | 50.8 | -1.76
NDUFAF8 | 2 | 3.12 (active) | 144 | 1.84
NDUFAF8 | 3 | 1.21 | 106 | 1.03
EIF2A | 1 | 0.321 | 88.3 | 0.217
EIF2A | 2 | 1.42 | 110 | 1.54
EIF2A | 3 | 1.54 | 113 | 1.57
ZIK1 | 1 | 1.41 | 110 | 1.43
ZIK1 | 2 | -0.471 | 72.5 | -1.11
ZIK1 | 3 | 0.472 | 91.3 | 0.726
SNX16 | 1 | -0.429 | 73.4 | -0.0772
SNX16 | 2 | -0.0085 | 81.7 | 0.0321
SNX16 | 3 | -0.333 | 75.3 | -0.967
NPPA | 1 | -0.169 | 78.5 | -0.387
NPPA | 2 | 0.171 | 85.3 | 0.738
NPPA | 3 | -1.67 | 48.8 | -0.992

The list goes on, starting with the last 2 of the part before.
Target gene | reagent no. | total luciferase, z-score | total luciferase, % of control | luciferase per cell, z-score
NPPA | 2 | 0.171 | 85.3 | 0.738
NPPA | 3 | -1.67 | 48.8 | -0.992
DRC8 | 1 | 1.72 | 116 | 1.46
DRC8 | 2 | -0.684 | 68.3 | -0.779
DRC8 | 3 | -0.852 | 64.9 | -1.41
ZNF835 | 1 | -0.613 | 69.7 | -1.05
ZNF835 | 2 | -0.233 | 77.2 | -0.142
ZNF835 | 3 | 2.12 | 124 | 2.45
PRXL2C | 1 | -0.332 | 75.3 | -0.116
PRXL2C | 2 | -0.978 | 62.4 | -1.19
PRXL2C | 3 | -1.39 | 54.2 | -1.13
KLC3 | 1 | 1.11 | 104 | 1.41
KLC3 | 2 | 0.372 | 89.3 | 0.0412
KLC3 | 3 | -1.52 | 51.7 | -1.43
MAGEB2 | 1 | 1.07 | 103 | 0.943
MAGEB2 | 2 | 1.27 | 107 | 0.624
MAGEB2 | 3 | 0.401 | 89.9 | 0.191
BOD1 | 1 | -0.726 | 67.4 | -0.796
BOD1 | 2 | 1.29 | 108 | 1.42
BOD1 | 3 | -0.904 | 63.9 | -0.635
GSC2 | 1 | 0.352 | 88.9 | 0.69
GSC2 | 2 | 0.422 | 90.3 | 0.304
GSC2 | 3 | 0.638 | 94.6 | 0.204
RYK | 1 | 1.68 | 115 | 2.22
RYK | 2 | 0.0582 | 83 | -0.161
RYK | 3 | 0.0207 | 82.3 | -0.855
IGFL3 | 1 | 0.819 | 98.2 | -0.114
IGFL3 | 2 | -0.252 | 76.9 | -0.411
IGFL3 | 3 | -0.689 | 68.2 | -0.189
